The target of this assay is recombinant full-length Apaf-1XL (UniProt O14727). Briefly: SEC; as a2 but in the absence of Cc and dATP: Apaf-1 (300 nM) with C9 protein (200 nM); Superose-6 gel filtration, immunoblot; both purified.

Chains of the proteins cited; added tags and fusions are not shown. Lines headed by an entry give the natural chain unless they say otherwise; changes in a name come on top.
UniProt O14727: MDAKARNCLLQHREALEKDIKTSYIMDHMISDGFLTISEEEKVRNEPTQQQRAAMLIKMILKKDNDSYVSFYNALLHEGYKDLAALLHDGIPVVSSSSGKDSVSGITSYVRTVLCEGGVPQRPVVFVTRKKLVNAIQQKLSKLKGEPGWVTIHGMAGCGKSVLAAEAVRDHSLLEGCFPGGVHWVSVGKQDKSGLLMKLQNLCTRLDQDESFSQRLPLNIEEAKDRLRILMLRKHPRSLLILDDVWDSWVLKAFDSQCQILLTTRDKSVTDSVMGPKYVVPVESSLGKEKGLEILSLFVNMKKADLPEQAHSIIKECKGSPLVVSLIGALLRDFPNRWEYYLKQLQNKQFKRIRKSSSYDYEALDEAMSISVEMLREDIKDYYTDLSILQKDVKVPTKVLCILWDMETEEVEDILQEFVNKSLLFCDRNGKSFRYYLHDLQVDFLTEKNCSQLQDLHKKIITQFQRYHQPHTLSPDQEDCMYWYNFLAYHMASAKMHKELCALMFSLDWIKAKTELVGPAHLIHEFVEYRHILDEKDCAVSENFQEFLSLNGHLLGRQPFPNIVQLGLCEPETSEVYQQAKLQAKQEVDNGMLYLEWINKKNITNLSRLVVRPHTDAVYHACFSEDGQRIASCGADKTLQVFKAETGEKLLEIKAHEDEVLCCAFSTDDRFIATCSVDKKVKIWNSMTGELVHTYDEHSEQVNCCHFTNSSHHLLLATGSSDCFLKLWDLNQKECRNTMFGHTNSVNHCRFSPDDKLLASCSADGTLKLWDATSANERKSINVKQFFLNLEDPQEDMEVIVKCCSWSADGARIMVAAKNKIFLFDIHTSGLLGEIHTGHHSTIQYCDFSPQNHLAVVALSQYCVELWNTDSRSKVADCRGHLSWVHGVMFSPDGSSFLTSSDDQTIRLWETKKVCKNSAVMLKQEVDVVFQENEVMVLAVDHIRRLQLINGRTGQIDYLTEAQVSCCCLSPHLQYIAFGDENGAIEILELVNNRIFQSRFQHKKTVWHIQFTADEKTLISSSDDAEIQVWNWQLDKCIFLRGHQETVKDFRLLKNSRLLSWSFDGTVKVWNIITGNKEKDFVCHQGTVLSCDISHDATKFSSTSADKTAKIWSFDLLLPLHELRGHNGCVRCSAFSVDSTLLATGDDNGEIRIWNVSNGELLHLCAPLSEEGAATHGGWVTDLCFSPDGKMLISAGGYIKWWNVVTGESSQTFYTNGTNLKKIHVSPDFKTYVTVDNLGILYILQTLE

No constants are given. Whether binding was seen depends on the method and setting.

With “recombinant full-length Apaf-1XL (from UniProt O14727-1 1-1248)”, the binding result was “no binding (condition: in the absence of Cc and dATP)”.

The values are drawn from PMC5123071.
